Measurements reported in PubChem BioAssay AID1259405 (NCATS, 2018).
Assay: 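Mouse-designed siRNAs used to find CHO productivity engineering targets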 (primary screen). Cell system: Chinese hamster CHO-K1 ovary cells with stable secreted eGFP expression. Reagents: single siRNA against mouse genes, 0.8 pmol siRNA per well (2 µl of 400 nM stock). Time to read-out: 3 days. Detection: 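Percent of the per-plate non-targeting control median for intracellular GFP per well by laser scanning cytometry and for cell viability by ATP luminescence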. Direction: GFP, % of control: higher = more GFP per well, higher productivity; viability (ATP), % of control: higher = more viable cells (more ATP). Rule for the call: 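a knock-down is called active if GFP reaches 120% or more of non-targeting control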.
The whole screen tested about 50,000 reagents; shown is an unselected part. About 4,000 of them (8%) were called active. 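Mouse siRNA library applied to hamster cells; one well for each siRNA.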 Unmarked entries are inactive.

Which result is listed for Scn11a (GeneID 24046) [SID363574678]?
GFP, % of control: 83.4; viability (ATP), % of control: 100

With Scn11a (GeneID 24046) [SID363575734], how do the results read?
GFP, % of control: 74.3; viability (ATP), % of control: 48

What is on record for Scn11a (GeneID 24046) [SID363580310]?
GFP, % of control: 77.2; viability (ATP), % of control: 73.4

With Ntn3 (GeneID 18209) [SID363582445], what was measured?
GFP, % of control: 153 (active); viability (ATP), % of control: 122

For Ntn3 (GeneID 18209) [SID363584205], how do the results read?
GFP, % of control: 152 (active); viability (ATP), % of control: 91.4

Which result is listed for Dennd10 (GeneID 67894) [SID363543424]?
GFP, % of control: 113; viability (ATP), % of control: 86.1

Which result is listed for Dennd10 (GeneID 67894) [SID363552917]?
GFP, % of control: 29.5; viability (ATP), % of control: 39.2

For Dennd10 (GeneID 67894) [SID363558765], what was measured?
GFP, % of control: 82.5; viability (ATP), % of control: 76.2

For Cysrt1 (GeneID 67859) [SID363543438], how do the results read?
GFP, % of control: 108; viability (ATP), % of control: 108

What is on record for Cysrt1 (GeneID 67859) [SID363552931]?
GFP, % of control: 82.1; viability (ATP), % of control: 55.6

With Cysrt1 (GeneID 67859) [SID363558779], what does the deposit list?
GFP, % of control: 84.9; viability (ATP), % of control: 70

What did the screen give for Rtel1 (GeneID 269400) [SID363545473]?
GFP, % of control: 60.1; viability (ATP), % of control: 38.8

With Rtel1 (GeneID 269400) [SID363548986], what was measured?
GFP, % of control: 82; viability (ATP), % of control: 62.2

With Rtel1 (GeneID 269400) [SID363562792], what was measured?
GFP, % of control: 37.1; viability (ATP), % of control: 55.3

For Ppp3cc (GeneID 19057) [SID363574960], how do the results read?
GFP, % of control: 80.5; viability (ATP), % of control: 86

With Ppp3cc (GeneID 19057) [SID363580592], how do the results read?
GFP, % of control: 22.8; viability (ATP), % of control: 35.2

For Ppp3cc (GeneID 19057) [SID363582704], what was measured?
GFP, % of control: 99.3; viability (ATP), % of control: 97.5

How did the screen score Ngdn (GeneID 68966) [SID363545821]?
GFP, % of control: 35.8; viability (ATP), % of control: 56.4

How did the screen score Ngdn (GeneID 68966) [SID363549334]?
GFP, % of control: 75.7; viability (ATP), % of control: 79.1

With Ngdn (GeneID 68966) [SID363563140], what does the deposit list?
GFP, % of control: 45.2; viability (ATP), % of control: 61.1

What did the screen give for Vstm2l (GeneID 277432) [SID363544067]?
GFP, % of control: 34.9; viability (ATP), % of control: 41.5

With Vstm2l (GeneID 277432) [SID363550395], what does the deposit list?
GFP, % of control: 72.1; viability (ATP), % of control: 71.5

Which result is listed for Vstm2l (GeneID 277432) [SID363556944]?
GFP, % of control: 47.7; viability (ATP), % of control: 75.2

With Pex7 (GeneID 18634) [SID363544870], what does the deposit list?
GFP, % of control: 63.2; viability (ATP), % of control: 69.5

What is on record for Pex7 (GeneID 18634) [SID363551198]?
GFP, % of control: 68.1; viability (ATP), % of control: 54.9

How did the screen score Pex7 (GeneID 18634) [SID363557747]?
GFP, % of control: 49.6; viability (ATP), % of control: 55.4

For Stx18 (GeneID 71116) [SID363581779], what does the deposit list?
GFP, % of control: 54.9; viability (ATP), % of control: 91.1

With Stx18 (GeneID 71116) [SID363589273], how do the results read?
GFP, % of control: 61.8; viability (ATP), % of control: 43.6

Copied from above for reference:
Rtel1 (GeneID 269400) [SID363545473] — GFP, % of control = 60.1; viability (ATP), % of control = 38.8
Rtel1 (GeneID 269400) [SID363548986] — GFP, % of control = 82; viability (ATP), % of control = 62.2
Rtel1 (GeneID 269400) [SID363562792] — GFP, % of control = 37.1; viability (ATP), % of control = 55.3
Ppp3cc (GeneID 19057) [SID363574960] — GFP, % of control = 80.5; viability (ATP), % of control = 86
